The values that follow come from patent US20240103005A1, “N-ACRYLOYLINDOLES AND METHODS OF USE” (The University of Hong Kong, priority 2022, published 2024).

Where no unit stands, none is given here, and values compare only within one read-out.

One series deals with HepG2 cell lysates. In words: MS-based ABPP to identify liganded cysteines in HepG2 cell lysates. Format: biochemical, human. As to conditions: for average number of peptides with probe modifications: triplicate; for labeled proteins not on the list of DrugBank (non-DrugBank proteins): DrugBank database analysis. As to the method: MS-Based ABPP Experiments to Identify Liganded Cysteines in HepG2 Cell Lysates by NAIA-5 or IAA.
HepG2 cells were lysed in PBS by sonication. After BCA assay and protein normalization, HepG2 cell lysates in PBS (2 mg/mL, 2 mL) were incubated with NAIA-5 and IAA (10 μM), respectively, at room temperature for 1 h with vortexing. Then, the samples were incubated with a master mix solution for CuAAC reaction, containing CuSO4, TBTA, DTB-PEG-azide and TECP (final concentrations are 1 mM, 100 μM, 100 μM and 1 mM respectively). After incubation at room temperature for 1 h with vortexing, pre-chilled acetone (12 mL) was added to the samples and proteins were allowed to precipitate out by storing at −20° C. overnight. The samples were centrifuged at 5,000 g at 4° C. for 10 min, and the supernatant was discarded. The protein pellets labeled by NAIA-5 and IAA were then combined and washed with pre-chilled methanol twice. The protein pellets were then re-dispersed in 1.2% SDS in PBS (w/v), followed by heating at 80° C. for 5 min. Any insoluble solids were discarded by centrifugation at 6,500 g for 5 min, and the supernatant were transferred to PBS solution containing Pierce™ Streptavidin Agarose beads (20349; Thermo Scientific) with final concentration of SDS equal to 0.2% (w/v). The samples and beads were incubated at 4° C. with rotation overnight. The beads were then washed with PBS and water, and re-dispersed in 6M urea in PBS. The samples were reduced by TCEP (1 mM) at 65° C. for 20 min, followed by alkylation with iodoacetamide (18 mM) at 37° C. for 30 min in dark. The beads were then spun down by centrifugation at 1,400 g for 2 min, washed with PBS and re-suspended in 2M urea in PBS. The proteins on the beads were then digested by sequencing grade trypsin (Promega) at 37° C. overnight. After tryptic digestion, the beads were spun down by centrifugation at 1,400 g for 2 min and the supernatant was discarded. The beads were washed thrice with PBS and thrice with water, followed by the addition of elution buffer solution (MeCN/H2O, 1:1, v/v; with 0.1% formic acid) to the beads and incubation for 5 min at 37° C. The probe-modified peptides were eluted out from the beads and the supernatant was collected. The beads were incubated with a new elution buffer solution, spun down and the supernatant solution was combined with the previous solution. The combined solution containing the eluted probe-modified peptides were dried and desalted by C18 Stage tips, and the peptides (200 ng) were sent for LC-MS/MS analysis using Aurora C18 UHPLC column (75 μm i.d.×25 cm length×1.6 μm particle size; IonOpticks, Australia) coupled to timsTOF Pro mass spectrometer (Bruker).
Chromatographic separation was carried out using buffer A (buffer A: 98:2 water:acetonitrile, 0.1% formic acid) and B (acetonitrile: 0.1% formic acid) with the gradient from 98% buffer A to 30% buffer B at a flow rate of 300 nL/min over 100 min, followed by an increase from 30% to 44% buffer B over 5 min, an increase to 95% buffer B in 0.5 min, an isocratic gradient of 95% buffer B over 8.5 min, a decrease of buffer B to 2% in 0.5 min and then an isocratic gradient of 2% buffer B for 5.5 min. MS data was collected over a m/z range of 100 to 1700, and MS/MS range of 100 to 1700. During MS/MS data collection, each TIMS cycle was 1.1 s and included 1 MS+an average of 10 PASEF MS/MS scans.
The data was searched against the Uniprot human database using MaxQuant v2.0.3.0, specified with trypsin digestion (allowed up to 3 missed cleavages) and cysteine carbamidomethylation (+57.02146) as a static modification. The search also allowed up to 5 variable modifications for methionine oxidation (+15.99491), N-terminal acetylation (+42.01056), cysteine modification by NAIA-5 (+681.38500) or cysteine modification by IAA (+494.32167). The peptide false discovery rate (FDR) was set to 1%. […]

The test system of the next series is 231MFP cell lysates. The series can be described thus: MS-based ABPP with MudPIT to identify liganded cysteines in 231MFP cell lysates. Format: biochemical, human.

Turning to `C#CCCCCNC(=O)CI` [IAA, N-Hex-5-ynyl-2-iodoacetamide, reference compound], in the series with HepG2 cell lysates (10 μM, 1 h), the “population of cysteines profiled in aggregate” value is listed as 1,257 and the “average number of peptides with probe modifications” value was 957. Also, the “labeled proteins not on the list of DrugBank (non-DrugBank proteins)” value in the series with HepG2 cell lysates was 76%. Moreover, in the series with 231MFP cell lysates (100 μM, 1 h, MudPIT), the “number of probe-modified peptides” value was 6,104 and the “population of cysteines profiled” value is on record as 3,072.
On to `C#CCCCCNC(=O)COc1ccc2c(ccn2C(=O)C=C)c1` [NAIA-5], for which, in the series with HepG2 cell lysates (10 μM, 1 h), the “number of different proteins with profiled cysteines” value is 3,394, the “number of proteins also labeled by IAA (overlap)” value was determined as 905, the “number of proteins uniquely profiled (not by IAA)” value is 2,489 and the “population of cysteines profiled in aggregate” value is 6,387. Further, the “average number of peptides with probe modifications” value in the series on HepG2 cell lysates (10 μM, 1 h) is 5,269. The “labeled proteins not on the list of DrugBank (non-DrugBank proteins)” value with HepG2 cell lysates worked out at 84%. The “number of GO biological processes unique for the probe, not found in IAA profiling” value in the series with HepG2 cell lysates (Gene Ontology analysis) is recorded as 650.
For the compound `C#CCCCCNC(=O)COc1cccc2c1ccn2C(=O)C=C` [NAIA-4], in the series on 231MFP cell lysates (100 μM, 1 h, MudPIT), the “number of probe-modified peptides” value is on record as 18,241, the “number of proteins uniquely profiled (not by IAA)” value is ~1,800 and the “population of cysteines profiled” value was 6,692. Moreover, the “number of biological processes regulated by proteins profiled by the probe only” value with 231MFP cell lysates (Gene Ontology analysis) is 292.
